In publication PMC6498657 one finds binding data, which are given here for two molecules.

Sequences of proteins named here, by UniProt entry; tags and fusion partners are left off. A change or cut given only in a name is not applied to a line headed by its entry. A line that says so, or that is headed by a name, gives the form on record, which may keep a tag or linker.
UniProt Q14790: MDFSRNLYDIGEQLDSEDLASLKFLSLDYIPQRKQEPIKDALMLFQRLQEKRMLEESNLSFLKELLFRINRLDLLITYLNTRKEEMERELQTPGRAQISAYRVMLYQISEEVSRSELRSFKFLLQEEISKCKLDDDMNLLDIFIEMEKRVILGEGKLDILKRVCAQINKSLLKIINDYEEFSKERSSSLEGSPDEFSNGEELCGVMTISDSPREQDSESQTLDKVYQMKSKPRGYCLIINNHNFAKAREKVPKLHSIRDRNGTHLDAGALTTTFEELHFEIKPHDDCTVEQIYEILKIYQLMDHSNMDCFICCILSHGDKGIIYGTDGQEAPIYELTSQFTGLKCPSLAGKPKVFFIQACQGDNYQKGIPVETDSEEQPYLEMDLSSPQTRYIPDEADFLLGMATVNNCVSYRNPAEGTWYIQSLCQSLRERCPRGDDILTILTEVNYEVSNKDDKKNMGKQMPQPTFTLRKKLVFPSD
HIS-CASP8M (Q14790, form named): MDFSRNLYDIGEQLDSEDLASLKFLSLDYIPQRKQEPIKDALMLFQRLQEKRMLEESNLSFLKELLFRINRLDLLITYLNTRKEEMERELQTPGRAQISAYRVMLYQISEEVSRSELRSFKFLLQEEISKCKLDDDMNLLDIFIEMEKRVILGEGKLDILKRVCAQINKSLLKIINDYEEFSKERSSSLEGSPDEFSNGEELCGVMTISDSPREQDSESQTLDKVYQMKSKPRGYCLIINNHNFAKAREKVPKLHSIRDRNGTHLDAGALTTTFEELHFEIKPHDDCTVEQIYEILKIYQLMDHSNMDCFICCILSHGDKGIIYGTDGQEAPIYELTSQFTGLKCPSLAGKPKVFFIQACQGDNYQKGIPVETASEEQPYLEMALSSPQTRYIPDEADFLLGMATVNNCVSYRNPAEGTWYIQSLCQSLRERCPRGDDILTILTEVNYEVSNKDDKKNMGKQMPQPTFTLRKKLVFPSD

In one assay the target is T1, FLAG-GMEB1 (human) (UniProt Q9Y692).
T1 sequence: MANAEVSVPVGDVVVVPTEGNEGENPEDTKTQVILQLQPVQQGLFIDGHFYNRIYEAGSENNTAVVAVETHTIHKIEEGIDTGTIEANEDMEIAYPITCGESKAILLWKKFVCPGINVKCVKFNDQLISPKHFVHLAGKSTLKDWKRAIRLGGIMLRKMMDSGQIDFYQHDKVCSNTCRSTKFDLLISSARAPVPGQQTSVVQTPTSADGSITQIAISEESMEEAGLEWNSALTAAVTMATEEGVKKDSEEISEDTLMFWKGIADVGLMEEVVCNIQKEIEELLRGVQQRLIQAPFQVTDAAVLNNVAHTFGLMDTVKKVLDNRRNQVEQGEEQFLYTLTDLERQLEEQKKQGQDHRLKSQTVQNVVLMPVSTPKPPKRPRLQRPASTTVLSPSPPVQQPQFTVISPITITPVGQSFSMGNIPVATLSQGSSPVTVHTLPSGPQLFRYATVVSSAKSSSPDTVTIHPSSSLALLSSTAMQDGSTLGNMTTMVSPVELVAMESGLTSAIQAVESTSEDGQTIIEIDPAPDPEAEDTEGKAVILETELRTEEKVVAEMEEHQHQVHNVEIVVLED
The assay is described as follows: co-IP; tagged plasmids co-transfected in HEK293FT cells; lysis buffer 20 mM Tris-HCl pH 7.5, 150 mM NaCl, 0.5% Triton; antibody 1 h and protein A beads 2 h at 4 °C; some panels with GMEB1, CASP8 or CFLARL siRNA or with GMEB1 overexpression.

A further assay has as its target T2, His-tagged USP40 (human) (UniProt Q9NVE5).
T2 sequence: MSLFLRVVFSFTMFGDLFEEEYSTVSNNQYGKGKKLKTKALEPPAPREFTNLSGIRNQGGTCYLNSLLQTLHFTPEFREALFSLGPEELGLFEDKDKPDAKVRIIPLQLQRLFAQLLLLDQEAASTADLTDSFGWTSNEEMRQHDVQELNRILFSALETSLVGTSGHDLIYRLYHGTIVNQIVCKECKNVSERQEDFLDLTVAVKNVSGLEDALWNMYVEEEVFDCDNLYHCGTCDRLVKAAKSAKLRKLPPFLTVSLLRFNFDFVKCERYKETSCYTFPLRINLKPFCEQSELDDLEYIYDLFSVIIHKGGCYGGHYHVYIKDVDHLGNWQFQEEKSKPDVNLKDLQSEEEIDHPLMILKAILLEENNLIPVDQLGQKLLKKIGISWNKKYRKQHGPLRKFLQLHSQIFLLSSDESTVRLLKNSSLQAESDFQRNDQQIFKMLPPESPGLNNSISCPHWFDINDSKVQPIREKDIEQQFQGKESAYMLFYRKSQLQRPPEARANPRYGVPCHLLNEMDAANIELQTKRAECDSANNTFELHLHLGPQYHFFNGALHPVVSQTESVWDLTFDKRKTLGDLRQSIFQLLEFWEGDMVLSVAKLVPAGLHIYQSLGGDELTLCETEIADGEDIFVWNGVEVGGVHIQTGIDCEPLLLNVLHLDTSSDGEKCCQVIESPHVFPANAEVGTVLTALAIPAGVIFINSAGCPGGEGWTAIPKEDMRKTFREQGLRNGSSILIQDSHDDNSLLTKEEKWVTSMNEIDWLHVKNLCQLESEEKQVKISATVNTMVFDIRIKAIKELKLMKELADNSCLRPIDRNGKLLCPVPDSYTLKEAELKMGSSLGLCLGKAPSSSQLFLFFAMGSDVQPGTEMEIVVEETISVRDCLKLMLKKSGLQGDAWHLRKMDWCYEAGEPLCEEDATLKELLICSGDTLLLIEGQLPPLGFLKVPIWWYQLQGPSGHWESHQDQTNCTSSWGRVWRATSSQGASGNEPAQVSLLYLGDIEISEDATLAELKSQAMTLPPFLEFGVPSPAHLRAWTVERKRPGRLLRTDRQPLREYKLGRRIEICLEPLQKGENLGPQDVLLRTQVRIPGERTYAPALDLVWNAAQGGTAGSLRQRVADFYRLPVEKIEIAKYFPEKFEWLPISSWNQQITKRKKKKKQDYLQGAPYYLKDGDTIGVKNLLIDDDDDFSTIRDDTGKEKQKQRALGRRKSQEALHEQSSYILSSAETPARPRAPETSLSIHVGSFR
The assay is described as follows: co-IP; tagged GMEB1 and tagged USP40, with a reverse experiment; cells not stated for this experiment.

Results are given in words; binding and its absence hold for the method and conditions named. Binding seen in cells or lysates may run through a third protein. Some binding calls cover weakened binding; strength is not graded here. Sequences can lack the tags named with a protein.

As to “HIS-CASP8M (from UniProt Q14790 1-479) (enzyme)”, in the assay with FLAG-GMEB1 (human), the binding result is on record as “binds”.

B1: HA-tagged GMEB1 (glucocorticoid modulatory element-binding protein 1) (protein, UniProt Q9Y692 1-573)
chain: MANAEVSVPVGDVVVVPTEGNEGENPEDTKTQVILQLQPVQQGLFIDGHFYNRIYEAGSENNTAVVAVETHTIHKIEEGIDTGTIEANEDMEIAYPITCGESKAILLWKKFVCPGINVKCVKFNDQLISPKHFVHLAGKSTLKDWKRAIRLGGIMLRKMMDSGQIDFYQHDKVCSNTCRSTKFDLLISSARAPVPGQQTSVVQTPTSADGSITQIAISEESMEEAGLEWNSALTAAVTMATEEGVKKDSEEISEDTLMFWKGIADVGLMEEVVCNIQKEIEELLRGVQQRLIQAPFQVTDAAVLNNVAHTFGLMDTVKKVLDNRRNQVEQGEEQFLYTLTDLERQLEEQKKQGQDHRLKSQTVQNVVLMPVSTPKPPKRPRLQRPASTTVLSPSPPVQQPQFTVISPITITPVGQSFSMGNIPVATLSQGSSPVTVHTLPSGPQLFRYATVVSSAKSSSPDTVTIHPSSSLALLSSTAMQDGSTLGNMTTMVSPVELVAMESGLTSAIQAVESTSEDGQTIIEIDPAPDPEAEDTEGKAVILETELRTEEKVVAEMEEHQHQVHNVEIVVLED
For the molecule B1, the binding entry with His-tagged USP40 (human) is “binds”.
